Part of at least one peptide drawing is inferred or uncertain, most often the ends. Some entries repeat one wording, which the source may state once for all of them. No end group written: not given here.
Key:
[1] = Homo-dimerisation of cysteine-containing peptides; format: physicochemical; conditions: peptides with cysteine residues; previously shown
[2] = test system: PBMC's from cat allergic subjects; test: Cell proliferation assay (3H-thymidine incorporation); format: cell-based, human; conditions: for percentage of subjects mounting a detectable proliferative response: population of 100 subjects

Row | Sequence | homo-dimerisation [1] | percentage of subjects mounting a detectable proliferative response [2] [%] | proliferative response, in words [2]
1 | TAMKKIQDCYVENGLI [MLA12, TAMKKIQDCYVENGLI] | capable of varying degrees of homo-dimerisation | 43 | –
2 | ISSSKDCMGEAVQNTV [MLA15, ISSSKDCMGEAVQNTV] | capable of varying degrees of homo-dimerisation | – | more potent in induction of proliferation than several of the preferred 7 peptides
3 | KALPVVLENARILKNCV [MLA04, KALPVVLENARILKNCV] | capable of varying degrees of homo-dimerisation | 6 | poor at inducing proliferation
4 | AVQNTVEDLKLNTLGR [MLA16, AVQNTVEDLKLNTLGR] | – | – | more potent in induction of proliferation than several of the preferred 7 peptides

From patent US9168295B2, “Vaccine peptide combinations” (Circassia Limited, priority 2007, dated 2015)
